Experimental data: PubChem BioAssay AID1224830 (NIAID, 2016)
The whole screen tested about 18,000 reagents; below is a random part of them. About 2,900 of them (16%) count as active. 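Calls are made per well; low scores hint the gene aids the LPS response, high scores that it dampens it.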 Repeated entries: four replicate wells of each siRNA pool.

Test: 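Host factors that control LPS-induced TNF expression in human macrophages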 (primary screen)
System: human THP-1 monocytic leukaemia cells, TNF dual-luciferase reporter clone, PMA-differentiated to macrophage-like cells
Reagents: siRNA pool against human genes, 50 nM
Time to read-out: LPS for 4 h, given about 3 days after siRNA transfection
Conditions: bacterial LPS (TLR4 ligand), 10 ng/ml
Detection: 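TNF firefly reporter luminescence divided by renilla, normalised to the plate median, then turned into a robust z-score for each replicate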
Direction: TNF reporter robust z-score: higher = stronger TNF reporter response to LPS
Hit rule: 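Each well counts as active if its z-score is over 2.8 or under -1.5; controls are left without a call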

gene knocked down	TNF reporter robust z-score	outcome
TNFRSF21 (GeneID 27242)	-0.68	inactive
TNFRSF21 (GeneID 27242)	0.51	inactive
TNFRSF21 (GeneID 27242)	1.16	inactive
KCNJ11 (GeneID 3767)	-1.15	inactive
KCNJ11 (GeneID 3767)	-1.12	inactive
KCNJ11 (GeneID 3767)	-0.79	inactive
KCNJ11 (GeneID 3767)	-0.55	inactive
NLRP11 (GeneID 204801)	0.6	inactive
NLRP11 (GeneID 204801)	1.68	inactive
NLRP11 (GeneID 204801)	0.92	inactive
NLRP11 (GeneID 204801)	1.52	inactive
CNOT6 (GeneID 57472)	0.17	inactive
CNOT6 (GeneID 57472)	2.7	inactive
CNOT6 (GeneID 57472)	2.38	inactive
CNOT6 (GeneID 57472)	2.07	inactive
FAM178B (GeneID 51252)	-1.05	inactive
FAM178B (GeneID 51252)	0.5	inactive
FAM178B (GeneID 51252)	-0.25	inactive
FAM178B (GeneID 51252)	0.95	inactive
YBX3 (GeneID 8531)	-2.07	active
YBX3 (GeneID 8531)	-1.34	inactive
YBX3 (GeneID 8531)	-1.03	inactive
YBX3 (GeneID 8531)	-0.98	inactive
FBXO27 (GeneID 126433)	0.5	inactive
FBXO27 (GeneID 126433)	1.7	inactive
FBXO27 (GeneID 126433)	-1.01	inactive
FBXO27 (GeneID 126433)	-0.51	inactive
AIMP2 (GeneID 7965)	0.6	inactive
AIMP2 (GeneID 7965)	-0.52	inactive
AIMP2 (GeneID 7965)	-0.49	inactive
AIMP2 (GeneID 7965)	0.42	inactive
SLC14A2 (GeneID 8170)	-0.34	inactive
SLC14A2 (GeneID 8170)	-0.13	inactive
SLC14A2 (GeneID 8170)	-0.05	inactive
SLC14A2 (GeneID 8170)	0.48	inactive
TOP2A (GeneID 7153)	2.55	inactive
TOP2A (GeneID 7153)	-0.8	inactive
TOP2A (GeneID 7153)	-1.11	inactive
TOP2A (GeneID 7153)	-1.34	inactive
MAP2K6 (GeneID 5608)	-0.97	inactive
MAP2K6 (GeneID 5608)	-1.16	inactive
MAP2K6 (GeneID 5608)	-0.77	inactive
MAP2K6 (GeneID 5608)	-0.06	inactive
FAM217A (GeneID 222826)	-0.23	inactive
FAM217A (GeneID 222826)	-0.47	inactive
FAM217A (GeneID 222826)	-0.37	inactive
FAM217A (GeneID 222826)	0.88	inactive
NAALADL1 (GeneID 10004)	1.03	inactive
NAALADL1 (GeneID 10004)	1.35	inactive
NAALADL1 (GeneID 10004)	-0.77	inactive
NAALADL1 (GeneID 10004)	-0.7	inactive
ASB10 (GeneID 136371)	2.39	inactive
ASB10 (GeneID 136371)	-0.92	inactive
ASB10 (GeneID 136371)	-0.76	inactive
ASB10 (GeneID 136371)	-0.97	inactive
ATF6 (GeneID 22926)	0.23	inactive
ATF6 (GeneID 22926)	0.4	inactive
ATF6 (GeneID 22926)	1.43	inactive
ZNF70 (GeneID 7621)	0.26	inactive
ZNF70 (GeneID 7621)	-0.12	inactive
ZNF70 (GeneID 7621)	-0.7	inactive
ZNF70 (GeneID 7621)	0.18	inactive
NAXE (GeneID 128240)	-0.23	inactive
NAXE (GeneID 128240)	-0.25	inactive
NAXE (GeneID 128240)	-0.35	inactive
NAXE (GeneID 128240)	0.2	inactive
MINDY4 (GeneID 84182)	0.16	inactive
MINDY4 (GeneID 84182)	0.58	inactive
MINDY4 (GeneID 84182)	0.71	inactive
MINDY4 (GeneID 84182)	1.77	inactive
MAT2A (GeneID 4144)	-1.98	active
MAT2A (GeneID 4144)	-1.33	inactive
MAT2A (GeneID 4144)	-1.52	active
MAT2A (GeneID 4144)	-1.47	inactive
HTRA3 (GeneID 94031)	1.45	inactive
HTRA3 (GeneID 94031)	0.85	inactive
HTRA3 (GeneID 94031)	-0.15	inactive
HTRA3 (GeneID 94031)	-0.31	inactive
ANKRD13C-DT (GeneID 11147)	0.18	inactive
ANKRD13C-DT (GeneID 11147)	0.76	inactive
ANKRD13C-DT (GeneID 11147)	-1.49	inactive
ANKRD13C-DT (GeneID 11147)	-0.78	inactive
CAPZB (GeneID 832)	0.94	inactive
CAPZB (GeneID 832)	-0.75	inactive
CAPZB (GeneID 832)	1.06	inactive
CAPZB (GeneID 832)	-0.72	inactive
ZNF721 (GeneID 170960)	-0.32	inactive
ZNF721 (GeneID 170960)	-0.07	inactive
ZNF721 (GeneID 170960)	0.25	inactive
ZNF721 (GeneID 170960)	0.05	inactive
MVK (GeneID 4598)	-1.01	inactive
MVK (GeneID 4598)	-0.8	inactive
MVK (GeneID 4598)	-1.22	inactive
MVK (GeneID 4598)	-1.03	inactive
FUT6 (GeneID 2528)	2.06	inactive
FUT6 (GeneID 2528)	2.77	inactive
FUT6 (GeneID 2528)	1.05	inactive
FUT6 (GeneID 2528)	2.99	active
STX12 (GeneID 23673)	-0.61	inactive
STX12 (GeneID 23673)	0.06	inactive
STX12 (GeneID 23673)	-0.81	inactive
STX12 (GeneID 23673)	-0.04	inactive
GABRA4 (GeneID 2557)	-0.15	inactive
GABRA4 (GeneID 2557)	-0.34	inactive
GABRA4 (GeneID 2557)	-0.84	inactive
GABRA4 (GeneID 2557)	-0.48	inactive
RPS6KA1 (GeneID 6195)	-1.01	inactive
RPS6KA1 (GeneID 6195)	0.25	inactive
RPS6KA1 (GeneID 6195)	-0.05	inactive
RPS6KA1 (GeneID 6195)	0.47	inactive
ANO8 (GeneID 57719)	-0.99	inactive
ANO8 (GeneID 57719)	-0.66	inactive
ANO8 (GeneID 57719)	-0.03	inactive
ANO8 (GeneID 57719)	0.28	inactive
OR2A42 (GeneID 402317)	-0.06	inactive
OR2A42 (GeneID 402317)	0.35	inactive
OR2A42 (GeneID 402317)	-0.48	inactive
OR2A42 (GeneID 402317)	-0.64	inactive
CLEC18B (GeneID 497190)	1.13	inactive
CLEC18B (GeneID 497190)	0.01	inactive
CLEC18B (GeneID 497190)	0.29	inactive
CLEC18B (GeneID 497190)	0.24	inactive
ARHGAP20 (GeneID 57569)	-1.28	inactive
ARHGAP20 (GeneID 57569)	-1.03	inactive
ARHGAP20 (GeneID 57569)	-1.04	inactive
ARHGAP20 (GeneID 57569)	-0.89	inactive
GPR151 (GeneID 134391)	0.36	inactive
GPR151 (GeneID 134391)	-0.65	inactive
GPR151 (GeneID 134391)	-0.43	inactive
GPR151 (GeneID 134391)	0.57	inactive
NMS (GeneID 129521)	-0.82	inactive
NMS (GeneID 129521)	-0.85	inactive
NMS (GeneID 129521)	-0.49	inactive
NMS (GeneID 129521)	-0.9	inactive
MLF2 (GeneID 8079)	-0.27	inactive
MLF2 (GeneID 8079)	0.02	inactive
MLF2 (GeneID 8079)	0	inactive
TRMT6 (GeneID 51605)	1.53	inactive
TRMT6 (GeneID 51605)	1.2	inactive
TRMT6 (GeneID 51605)	1.71	inactive
TRMT6 (GeneID 51605)	1.56	inactive

Reagents listed above with an active call (4):
gene knocked down	TNF reporter robust z-score	outcome
YBX3 (GeneID 8531)	-2.07	active
MAT2A (GeneID 4144)	-1.98	active
MAT2A (GeneID 4144)	-1.52	active
FUT6 (GeneID 2528)	2.99	active
